The text below walks through data of paper PMC9688487.

Chains of the proteins cited; added tags and fusions are not shown.
UniProt Q3V6T2: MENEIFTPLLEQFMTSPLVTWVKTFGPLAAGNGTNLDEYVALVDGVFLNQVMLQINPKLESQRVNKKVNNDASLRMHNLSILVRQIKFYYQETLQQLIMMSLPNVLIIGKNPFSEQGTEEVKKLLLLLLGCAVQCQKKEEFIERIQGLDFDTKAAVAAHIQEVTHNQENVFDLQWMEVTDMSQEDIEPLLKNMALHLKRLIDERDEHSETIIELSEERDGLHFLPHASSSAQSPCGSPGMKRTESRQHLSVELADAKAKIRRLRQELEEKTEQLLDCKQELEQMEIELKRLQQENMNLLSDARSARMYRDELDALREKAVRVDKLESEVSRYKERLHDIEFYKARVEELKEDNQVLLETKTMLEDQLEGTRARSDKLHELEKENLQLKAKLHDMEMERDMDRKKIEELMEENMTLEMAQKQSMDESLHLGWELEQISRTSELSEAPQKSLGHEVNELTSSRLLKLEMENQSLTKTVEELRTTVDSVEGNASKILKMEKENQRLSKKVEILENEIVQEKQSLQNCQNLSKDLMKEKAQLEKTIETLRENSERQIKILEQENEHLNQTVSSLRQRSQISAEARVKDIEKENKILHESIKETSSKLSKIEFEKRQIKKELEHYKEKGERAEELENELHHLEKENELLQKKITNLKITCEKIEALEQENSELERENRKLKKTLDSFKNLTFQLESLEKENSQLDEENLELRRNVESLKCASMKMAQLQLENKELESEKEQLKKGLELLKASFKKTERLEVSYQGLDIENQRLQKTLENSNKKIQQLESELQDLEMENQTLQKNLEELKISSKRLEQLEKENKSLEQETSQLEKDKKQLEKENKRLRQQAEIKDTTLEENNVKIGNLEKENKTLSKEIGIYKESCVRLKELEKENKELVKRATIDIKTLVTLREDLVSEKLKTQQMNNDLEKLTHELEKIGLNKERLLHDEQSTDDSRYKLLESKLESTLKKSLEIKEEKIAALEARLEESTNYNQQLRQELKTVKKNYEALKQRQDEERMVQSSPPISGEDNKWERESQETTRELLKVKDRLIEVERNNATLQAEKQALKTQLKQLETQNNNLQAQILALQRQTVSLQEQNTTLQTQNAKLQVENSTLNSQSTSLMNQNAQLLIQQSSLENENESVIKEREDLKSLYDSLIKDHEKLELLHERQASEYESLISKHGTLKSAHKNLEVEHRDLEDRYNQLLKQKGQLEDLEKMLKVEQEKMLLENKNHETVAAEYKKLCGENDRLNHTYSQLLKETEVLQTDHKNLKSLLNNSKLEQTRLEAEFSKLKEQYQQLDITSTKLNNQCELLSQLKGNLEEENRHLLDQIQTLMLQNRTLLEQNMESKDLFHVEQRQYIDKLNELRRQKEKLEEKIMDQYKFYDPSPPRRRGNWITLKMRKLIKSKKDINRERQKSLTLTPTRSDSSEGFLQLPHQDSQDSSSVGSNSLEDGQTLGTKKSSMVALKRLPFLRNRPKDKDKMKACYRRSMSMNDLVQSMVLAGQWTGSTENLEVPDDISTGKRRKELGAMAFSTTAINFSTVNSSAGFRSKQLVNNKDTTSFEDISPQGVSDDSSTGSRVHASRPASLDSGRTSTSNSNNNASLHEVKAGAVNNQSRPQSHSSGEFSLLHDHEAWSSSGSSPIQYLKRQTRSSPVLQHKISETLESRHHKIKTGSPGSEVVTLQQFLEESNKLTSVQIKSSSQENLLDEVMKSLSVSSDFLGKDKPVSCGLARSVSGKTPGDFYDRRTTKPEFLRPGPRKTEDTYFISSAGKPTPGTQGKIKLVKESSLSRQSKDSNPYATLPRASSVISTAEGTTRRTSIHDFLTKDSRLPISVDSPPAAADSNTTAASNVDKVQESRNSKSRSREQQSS
UniProt P14618: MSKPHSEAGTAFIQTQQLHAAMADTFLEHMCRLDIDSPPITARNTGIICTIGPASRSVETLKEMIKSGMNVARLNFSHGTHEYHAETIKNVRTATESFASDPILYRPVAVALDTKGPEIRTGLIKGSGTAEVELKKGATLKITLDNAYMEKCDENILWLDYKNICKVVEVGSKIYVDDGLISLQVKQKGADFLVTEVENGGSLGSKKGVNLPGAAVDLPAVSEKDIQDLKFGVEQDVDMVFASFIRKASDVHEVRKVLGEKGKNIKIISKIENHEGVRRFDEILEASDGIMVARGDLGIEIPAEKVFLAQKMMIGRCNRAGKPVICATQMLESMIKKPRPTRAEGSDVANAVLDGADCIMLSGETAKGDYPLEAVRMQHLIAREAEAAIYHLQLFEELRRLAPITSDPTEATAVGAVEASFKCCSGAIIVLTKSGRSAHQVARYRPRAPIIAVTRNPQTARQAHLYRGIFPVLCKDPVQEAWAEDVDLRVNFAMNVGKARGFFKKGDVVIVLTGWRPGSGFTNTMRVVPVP

No constants are given. Whether binding was seen depends on the method and setting. Binding seen in cells or lysates may run through a third protein. Some binding calls cover weakened binding; strength is not graded here.

Assay [1] deals with Girdin (human (endogenous in A549)) (UniProt Q3V6T2). Put plainly: co-IP; reciprocal IP in A549 cells with control IgG and anti-Girdin or anti-Flag antibody.
For assay [2] the target is unchanged. As to the kind of experiment: co-IP; co-IP in A549 cells to screen the Girdin-interacting proteins from key enzymes of glycolysis.

Regarding “pyruvate kinase M2 (from UniProt P14618 1-531) (enzyme)”, the binding entry in assay [1] and in assay [2] was “binds” in each case.

B1: Phosphofructokinase Platelet (enzyme, UniProt Q01813 1-784)
chain: MDADDSRAPKGSLRKFLEHLSGAGKAIGVLTSGGDAQGMNAAVRAVVRMGIYVGAKVYFIYEGYQGMVDGGSNIAEADWESVSSILQVGGTIIGSARCQAFRTREGRLKAACNLLQRGITNLCVIGGDGSLTGANLFRKEWSGLLEELARNGQIDKEAVQKYAYLNVVGMVGSIDNDFCGTDMTIGTDSALHRIIEVVDAIMTTAQSHQRTFVLEVMGRHCGYLALVSALACGADWVFLPESPPEEGWEEQMCVKLSENRARKKRLNIIIVAEGAIDTQNKPITSEKIKELVVTQLGYDTRVTILGHVQRGGTPSAFDRILASRMGVEAVIALLEATPDTPACVVSLNGNHAVRLPLMECVQMTQDVQKAMDERRFQDAVRLRGRSFAGNLNTYKRLAIKLPDDQIPKTNCNVAVINVGAPAAGMNAAVRSAVRVGIADGHRMLAIYDGFDGFAKGQIKEIGWTDVGGWTGQGGSILGTKRVLPGKYLEEIATQMRTHSINALLIIGGFEAYLGLLELSAAREKHEEFCVPMVMVPATVSNNVPGSDFSIGADTALNTITDTCDRIKQSASGTKRRVFIIETMGGYCGYLANMGGLAAGADAAYIFEEPFDIRDLQSNVEHLTEKMKTTIQRGLVLRNESCSENYTTDFIYQLYSEEGKGVFDCRKNVLGHMQQGGAPSPFDRNFGTKISARAMEWITAKLKEARGRGKKFTTDDSICVLGISKRNVIFQPVAELKKQTDFEHRIPKEQWWLKLRPLMKILAKYKASYDVSDSGQLEHVQPWSV
Take B1: the binding entry in assay [2] is reported as “no binding”.
